# Measured values as given in publication PMC3382761.
# The chains behind the UniProt entries cited, without tags or fusion partners.
# UniProt Q7TMY8: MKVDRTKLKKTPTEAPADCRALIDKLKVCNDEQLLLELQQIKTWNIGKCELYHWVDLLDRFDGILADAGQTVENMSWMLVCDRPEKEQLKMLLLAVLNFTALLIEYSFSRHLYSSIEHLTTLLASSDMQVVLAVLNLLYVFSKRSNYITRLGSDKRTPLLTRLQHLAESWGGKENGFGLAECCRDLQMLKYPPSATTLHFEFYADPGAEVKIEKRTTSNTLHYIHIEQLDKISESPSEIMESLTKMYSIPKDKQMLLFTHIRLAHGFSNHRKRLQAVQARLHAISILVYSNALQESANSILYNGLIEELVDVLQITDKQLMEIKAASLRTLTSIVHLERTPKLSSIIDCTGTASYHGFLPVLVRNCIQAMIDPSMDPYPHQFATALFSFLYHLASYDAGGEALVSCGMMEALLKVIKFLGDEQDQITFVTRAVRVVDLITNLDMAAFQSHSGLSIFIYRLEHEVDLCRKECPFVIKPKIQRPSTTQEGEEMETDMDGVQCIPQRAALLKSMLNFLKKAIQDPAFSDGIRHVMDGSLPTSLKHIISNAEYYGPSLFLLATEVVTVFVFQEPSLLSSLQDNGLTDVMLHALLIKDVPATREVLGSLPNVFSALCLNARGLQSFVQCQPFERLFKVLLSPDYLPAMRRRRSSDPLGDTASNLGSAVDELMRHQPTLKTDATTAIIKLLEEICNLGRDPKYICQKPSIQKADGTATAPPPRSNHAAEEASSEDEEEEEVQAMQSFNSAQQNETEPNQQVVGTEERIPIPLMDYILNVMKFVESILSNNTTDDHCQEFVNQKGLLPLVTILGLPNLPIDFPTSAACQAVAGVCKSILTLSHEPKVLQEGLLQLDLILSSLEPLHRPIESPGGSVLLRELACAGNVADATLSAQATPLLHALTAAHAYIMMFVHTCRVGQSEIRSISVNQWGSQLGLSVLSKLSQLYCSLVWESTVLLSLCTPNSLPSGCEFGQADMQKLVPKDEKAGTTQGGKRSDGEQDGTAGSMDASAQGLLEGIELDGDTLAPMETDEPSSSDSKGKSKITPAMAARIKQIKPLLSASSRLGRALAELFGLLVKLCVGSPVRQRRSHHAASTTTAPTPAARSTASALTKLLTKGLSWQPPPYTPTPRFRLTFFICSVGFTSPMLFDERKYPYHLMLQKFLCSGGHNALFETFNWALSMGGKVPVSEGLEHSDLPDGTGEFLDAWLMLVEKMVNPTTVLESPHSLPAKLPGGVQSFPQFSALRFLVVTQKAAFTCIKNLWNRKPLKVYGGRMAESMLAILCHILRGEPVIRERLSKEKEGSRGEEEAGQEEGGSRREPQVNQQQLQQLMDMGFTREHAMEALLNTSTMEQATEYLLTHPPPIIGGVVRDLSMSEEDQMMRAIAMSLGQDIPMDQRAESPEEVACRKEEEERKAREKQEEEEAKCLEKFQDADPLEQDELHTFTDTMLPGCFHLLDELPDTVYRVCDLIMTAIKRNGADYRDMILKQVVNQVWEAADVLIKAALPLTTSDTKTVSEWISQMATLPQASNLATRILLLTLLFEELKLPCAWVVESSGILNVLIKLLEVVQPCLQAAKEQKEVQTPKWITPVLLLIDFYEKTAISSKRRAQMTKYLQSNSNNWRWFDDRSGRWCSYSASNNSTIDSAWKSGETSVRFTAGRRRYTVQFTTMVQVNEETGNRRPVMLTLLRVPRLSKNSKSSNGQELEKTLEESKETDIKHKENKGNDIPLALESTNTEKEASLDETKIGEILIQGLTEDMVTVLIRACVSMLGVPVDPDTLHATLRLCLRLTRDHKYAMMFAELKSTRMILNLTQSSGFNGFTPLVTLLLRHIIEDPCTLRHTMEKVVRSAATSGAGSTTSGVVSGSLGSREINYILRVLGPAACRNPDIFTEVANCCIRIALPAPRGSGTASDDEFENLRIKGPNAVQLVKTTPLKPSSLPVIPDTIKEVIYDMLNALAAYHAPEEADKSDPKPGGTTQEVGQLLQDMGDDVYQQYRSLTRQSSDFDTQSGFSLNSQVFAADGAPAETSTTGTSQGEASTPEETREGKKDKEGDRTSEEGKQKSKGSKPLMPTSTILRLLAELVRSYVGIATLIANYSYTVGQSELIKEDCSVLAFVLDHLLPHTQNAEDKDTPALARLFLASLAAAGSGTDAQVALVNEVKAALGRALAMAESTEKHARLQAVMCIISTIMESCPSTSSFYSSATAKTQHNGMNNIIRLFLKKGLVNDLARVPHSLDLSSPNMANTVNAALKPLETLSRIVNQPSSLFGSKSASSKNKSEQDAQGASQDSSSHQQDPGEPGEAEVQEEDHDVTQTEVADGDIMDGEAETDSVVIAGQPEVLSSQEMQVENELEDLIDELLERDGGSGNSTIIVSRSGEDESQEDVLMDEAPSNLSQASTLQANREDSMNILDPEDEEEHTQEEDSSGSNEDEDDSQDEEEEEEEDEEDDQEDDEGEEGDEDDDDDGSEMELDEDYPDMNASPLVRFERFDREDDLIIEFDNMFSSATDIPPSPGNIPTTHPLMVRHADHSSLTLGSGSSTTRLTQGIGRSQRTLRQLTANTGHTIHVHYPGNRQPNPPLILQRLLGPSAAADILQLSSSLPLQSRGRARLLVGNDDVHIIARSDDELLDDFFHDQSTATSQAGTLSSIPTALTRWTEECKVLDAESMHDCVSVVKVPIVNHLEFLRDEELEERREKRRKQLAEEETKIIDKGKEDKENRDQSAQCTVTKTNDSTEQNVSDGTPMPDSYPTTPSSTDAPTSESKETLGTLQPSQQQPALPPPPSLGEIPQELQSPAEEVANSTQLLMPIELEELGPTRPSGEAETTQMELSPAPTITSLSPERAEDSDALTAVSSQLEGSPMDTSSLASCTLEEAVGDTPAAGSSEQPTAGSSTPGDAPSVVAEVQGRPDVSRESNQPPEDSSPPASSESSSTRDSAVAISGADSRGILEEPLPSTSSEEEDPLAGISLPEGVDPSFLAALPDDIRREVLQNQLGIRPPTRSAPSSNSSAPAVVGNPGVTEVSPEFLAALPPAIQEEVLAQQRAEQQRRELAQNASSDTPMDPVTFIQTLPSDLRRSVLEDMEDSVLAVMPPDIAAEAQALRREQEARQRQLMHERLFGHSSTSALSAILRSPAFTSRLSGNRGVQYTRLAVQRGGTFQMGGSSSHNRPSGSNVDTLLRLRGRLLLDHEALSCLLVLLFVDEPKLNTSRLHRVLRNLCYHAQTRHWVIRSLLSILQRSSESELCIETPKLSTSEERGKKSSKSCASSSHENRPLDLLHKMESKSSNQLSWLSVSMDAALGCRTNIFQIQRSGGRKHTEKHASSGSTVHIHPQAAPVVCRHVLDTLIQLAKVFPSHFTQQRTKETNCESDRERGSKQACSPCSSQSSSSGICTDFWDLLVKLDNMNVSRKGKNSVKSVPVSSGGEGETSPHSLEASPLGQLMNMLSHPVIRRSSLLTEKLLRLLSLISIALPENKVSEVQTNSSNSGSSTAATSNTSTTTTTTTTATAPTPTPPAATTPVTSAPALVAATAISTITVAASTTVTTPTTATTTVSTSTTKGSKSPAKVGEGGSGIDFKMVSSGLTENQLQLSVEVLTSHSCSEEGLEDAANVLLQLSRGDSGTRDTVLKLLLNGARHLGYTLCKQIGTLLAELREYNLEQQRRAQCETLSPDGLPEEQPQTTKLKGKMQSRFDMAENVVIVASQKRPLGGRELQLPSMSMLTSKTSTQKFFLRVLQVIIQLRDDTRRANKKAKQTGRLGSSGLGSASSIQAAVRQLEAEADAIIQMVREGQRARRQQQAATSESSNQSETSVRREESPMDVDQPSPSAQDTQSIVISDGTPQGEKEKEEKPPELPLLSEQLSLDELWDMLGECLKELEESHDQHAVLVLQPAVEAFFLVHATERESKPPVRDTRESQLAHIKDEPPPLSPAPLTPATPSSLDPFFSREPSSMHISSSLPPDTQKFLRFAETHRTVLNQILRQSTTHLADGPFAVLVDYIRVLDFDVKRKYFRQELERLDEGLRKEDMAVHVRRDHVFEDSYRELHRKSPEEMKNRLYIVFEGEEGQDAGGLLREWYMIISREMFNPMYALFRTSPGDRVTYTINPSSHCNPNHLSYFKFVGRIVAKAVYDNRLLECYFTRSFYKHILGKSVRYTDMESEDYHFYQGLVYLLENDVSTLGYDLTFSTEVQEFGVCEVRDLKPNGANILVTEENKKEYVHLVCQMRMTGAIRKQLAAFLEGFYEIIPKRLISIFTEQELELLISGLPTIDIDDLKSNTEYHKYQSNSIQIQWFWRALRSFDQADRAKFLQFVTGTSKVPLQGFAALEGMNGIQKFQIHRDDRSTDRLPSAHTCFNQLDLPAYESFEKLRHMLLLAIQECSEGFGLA
# UniProt P28574: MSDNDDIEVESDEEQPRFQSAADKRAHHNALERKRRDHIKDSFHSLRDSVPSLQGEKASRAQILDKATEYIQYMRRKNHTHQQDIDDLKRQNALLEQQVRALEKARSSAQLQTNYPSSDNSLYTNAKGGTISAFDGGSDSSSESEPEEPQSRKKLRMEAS
# UniProt P01106: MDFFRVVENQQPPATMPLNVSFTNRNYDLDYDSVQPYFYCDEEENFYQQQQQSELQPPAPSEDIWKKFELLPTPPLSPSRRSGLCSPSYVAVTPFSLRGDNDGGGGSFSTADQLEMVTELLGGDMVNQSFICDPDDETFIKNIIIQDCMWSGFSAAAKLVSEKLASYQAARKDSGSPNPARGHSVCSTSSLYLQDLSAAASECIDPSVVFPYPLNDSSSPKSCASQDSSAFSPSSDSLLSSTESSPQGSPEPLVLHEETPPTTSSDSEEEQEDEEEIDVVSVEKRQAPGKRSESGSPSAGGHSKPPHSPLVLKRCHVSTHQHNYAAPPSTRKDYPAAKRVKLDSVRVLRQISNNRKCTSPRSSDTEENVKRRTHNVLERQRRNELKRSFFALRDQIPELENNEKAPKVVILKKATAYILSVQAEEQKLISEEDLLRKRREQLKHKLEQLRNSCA
# UniProt P01108: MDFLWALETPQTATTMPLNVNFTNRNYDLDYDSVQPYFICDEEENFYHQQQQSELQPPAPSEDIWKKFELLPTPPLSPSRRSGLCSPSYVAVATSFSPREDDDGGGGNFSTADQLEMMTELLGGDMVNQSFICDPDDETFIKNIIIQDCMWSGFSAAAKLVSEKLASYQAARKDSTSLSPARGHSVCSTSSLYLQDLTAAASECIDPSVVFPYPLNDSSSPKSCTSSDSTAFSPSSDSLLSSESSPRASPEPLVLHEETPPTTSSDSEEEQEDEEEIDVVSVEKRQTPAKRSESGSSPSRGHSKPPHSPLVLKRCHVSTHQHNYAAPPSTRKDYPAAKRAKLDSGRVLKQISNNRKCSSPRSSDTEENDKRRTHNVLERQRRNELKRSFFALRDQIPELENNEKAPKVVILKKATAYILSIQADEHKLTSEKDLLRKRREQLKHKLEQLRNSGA
# UniProt P02340: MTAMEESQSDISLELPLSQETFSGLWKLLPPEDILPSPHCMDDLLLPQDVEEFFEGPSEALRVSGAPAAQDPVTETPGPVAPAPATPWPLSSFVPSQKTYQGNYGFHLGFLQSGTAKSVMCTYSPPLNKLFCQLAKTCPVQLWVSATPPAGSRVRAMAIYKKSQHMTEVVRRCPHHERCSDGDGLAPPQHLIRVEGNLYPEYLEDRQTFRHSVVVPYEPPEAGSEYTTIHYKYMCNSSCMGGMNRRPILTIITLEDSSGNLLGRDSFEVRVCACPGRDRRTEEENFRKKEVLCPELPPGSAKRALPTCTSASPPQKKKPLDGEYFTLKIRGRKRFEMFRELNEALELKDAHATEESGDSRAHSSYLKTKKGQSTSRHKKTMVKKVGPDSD
# No constants are given. Whether binding was seen depends on the method and setting. In cells and extracts the contact can be indirect. Some binding calls cover weakened binding; strength is not graded here.
# T1: full length CTCF (pull-down construct) (UniProt P49711)
# T1 sequence: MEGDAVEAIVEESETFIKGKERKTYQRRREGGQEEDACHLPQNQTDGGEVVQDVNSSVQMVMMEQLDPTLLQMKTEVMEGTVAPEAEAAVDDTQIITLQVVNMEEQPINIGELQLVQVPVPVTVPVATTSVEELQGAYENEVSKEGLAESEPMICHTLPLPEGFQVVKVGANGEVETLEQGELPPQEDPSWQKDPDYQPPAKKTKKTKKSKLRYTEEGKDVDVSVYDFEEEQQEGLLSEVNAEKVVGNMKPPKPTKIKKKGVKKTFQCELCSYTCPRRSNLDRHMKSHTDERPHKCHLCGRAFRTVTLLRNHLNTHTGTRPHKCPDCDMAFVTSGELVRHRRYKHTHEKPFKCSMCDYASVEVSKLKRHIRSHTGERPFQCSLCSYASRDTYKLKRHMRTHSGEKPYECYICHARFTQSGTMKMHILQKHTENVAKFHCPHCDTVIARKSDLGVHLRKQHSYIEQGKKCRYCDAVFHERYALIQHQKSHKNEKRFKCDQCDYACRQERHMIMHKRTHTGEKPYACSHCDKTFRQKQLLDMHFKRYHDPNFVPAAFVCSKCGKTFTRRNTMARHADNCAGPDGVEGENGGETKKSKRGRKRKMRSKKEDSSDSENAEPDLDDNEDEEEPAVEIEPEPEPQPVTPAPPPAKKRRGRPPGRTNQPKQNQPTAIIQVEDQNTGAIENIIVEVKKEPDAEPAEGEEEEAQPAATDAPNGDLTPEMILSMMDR
# Tests used:
# [1] = biological target: T1, full length CTCF (pull-down construct); test: pull-down; data not shown; full length CTCF or the central CTCF zinc finger region as bait; source of ARF-BP1 not told
# [2] = biological target: ARF-BP1 (E3 ubiquitin ligase encoded by HUWE1), endogenous in mouse B cell lymphoma cell lines (mouse (endogenous in SBL, DBLL and MZL-derived cell lines)) (UniProt Q7TMY8); test: co-IP; lysates of mouse SBL, λ-MYC TG DBLL and MZL-derived cell lines immunoprecipitated with ARF-BP1 antibody on beads; blotted with antibodies to ARF-BP1, ARF, p53, MYC and CTCF; normal IgG as negative control
# [3] = biological target: ARF-BP1, endogenous in P493-6 human B cells (human (endogenous in P493-6)) (UniProt Q7Z6Z7); test: co-IP; protein extracts of P493-6 cells with MYC on or off precipitated with antibodies to MAX, blotted with antibodies to ubiquitin or MYC; MYC+ cells also treated with ARF-BP1-specific or control siRNA
Molecule,binding [2],other results
ARF-BP1 pulled down by CTCF constructs (data not shown) (from UniProt Q7Z6Z7 1-4374) (enzyme),–,binding [1]: binds
MAX in mouse DBLL cells (from UniProt P28574 1-160),binds,–
MYC in P493-6 cells (conditional tetracycline-regulated MYC) (from UniProt P01106 1-454),–,binding [3]: binds
"MYC, endogenous in mouse SBL and MZL cell lines (from UniProt P01108 1-454)",binds,–
"p53, endogenous in mouse B cell lymphoma cell lines (from UniProt P02340 1-390)",binds,–
"ARF, endogenous in mouse B cell lymphoma cell lines (protein, UniProt Q64364 1-169) MGRRFLVTVRIQRAGRPLQERVFLVKFVRSRRPRTASCALAFVNMLLRLERILRRGPHRNPGPGDDDGQRSRSSSSAQLRCRFELRGPHYLLPPGARRSAGRLPGHAGGAARVRGSAGCARCLGSPAARLGPRAGTSRHRAIFAFRWVLFVFRWVVFVYRWERRPDRRA",binds,–
"CTCF, endogenous in mouse B cell lymphoma cell lines (protein, UniProt Q61164 1-736) MEGEAVEAIVEESETFIKGKERKTYQRRREGGQEEDACHLPQNQTDGGEVVQDVNSSVQMVMMEQLDPTLLQMKTEVMEGTVAPEAEAAVDDTQIITLQVVNMEEQPINIGELQLVQVPVPVTVPVATTSVEELQGAYENEVSKEGLAESEPMICHTLPLPEGFQVVKVGANGEVETLEQGELPPQEDSSWQKDPDYQPPAKKTKKTKKSKLRYTEEGKDVDVSVYDFEEEQQEGLLSEVNAEKVVGNMKPPKPTKIKKKGVKKTFQCELCSYTCPRRSNLDRHMKSHTDERPHKCHLCGRAFRTVTLLRNHLNTHTGTRPHKCPDCDMAFVTSGELVRHRRYKHTHEKPFKCSMCDYASVEVSKLKRHIRSHTGERPFQCSLCSYASRDTYKLKRHMRTHSGEKPYECYICHARFTQSGTMKMHILQKHTENVAKFHCPHCDTVIARKSDLGVHLRKQHSYIEQGKKCRYCDAVFHERYALIQHQKSHKNEKRFKCDQCDYACRQERHMIMHKRTHTGEKPYACSHCDKTFRQKQLLDMHFKRYHDPNFVPAAFVCSKCGKTFTRRNTMARHADNCAGPDGVEGENGGETKKSKRGRKRKMRSKKEDSSDSEENAEPDLDDNEEEEEPAVEIEPEPEPQPQPPPPPQPVAPAPPPAKKRRGRPPGRTNQPKQNQPTAIIQVEDQNTGAIENIIVEVKKEPDAEPAEGEEEEAQAATTDAPNGDLTPEMILSMMDR",binds,–
